Measurements published in paper PMC7819943, “Rice protein-binding microarrays: a tool to detect cis-acting elements near promoter regions in rice”.
The list shows a part of the results.

By UniProt entry, the sequences of proteins in these tests, tags left out.
UniProt Q0JBA9, entry or part of it: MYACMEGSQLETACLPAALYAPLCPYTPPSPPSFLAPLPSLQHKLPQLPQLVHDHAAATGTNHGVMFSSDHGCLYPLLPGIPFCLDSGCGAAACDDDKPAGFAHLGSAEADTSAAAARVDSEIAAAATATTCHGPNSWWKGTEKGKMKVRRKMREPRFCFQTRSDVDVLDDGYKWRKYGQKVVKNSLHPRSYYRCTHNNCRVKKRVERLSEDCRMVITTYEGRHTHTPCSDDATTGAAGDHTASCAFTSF

What follows are sequences tested against OsWRKY34 (Oryza sativa, UniProt Q0JBA9 1-250) (assay: protein-binding microarray (RPBM); PBS, 2% BSA, 51.3 ng/ul salmon testes DNA, 50 uM zinc acetate, 200 nM TF, 25 C, 1 h; high values mean tight binding). Settings: protein: recombinant; tags: N-terminal polyhistidine and DsRed monomer fusion (pET32a); label: CyDye5-dUTP incorporated in the synthesized complementary strand; 3' TTTTT single-stranded linker to array surface; dsDNA, one strand shown.
Procedure, shortened: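 Binding signal here means per-feature fluorescence intensity in arbitrary units. The values were read on an Axon 4000B scanner after a custom Agilent array, double-stranded by primer extension with Cy5-dUTP, was incubated with 200 nM protein at 25 °C for 1 h in PBS with 2% BSA, salmon testes DNA and 50 µM zinc acetate, then washed. The proteins were transcription factors with an N-terminal polyhistidine tag and DsRed, expressed in E. coli BL21-CodonPlus and purified on Ni–NTA.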

Sequence	binding signal
TGCCGGCCTTGGAGCGTTGTGCTGGACATGGACATGGACACGGAGTCACCTAGTGCAG	8880 fluorescence intensity (a.u.)
ACCATGTATGTCTCTAAGGTATTTTGGGTATTTTTTAAAACGGAGTCACCTAGTGCAG	8620 fluorescence intensity (a.u.)
GCTGTTCAGCTTCGGCCTCATCTTCGGCTTCGGCCACCTCCGGAGTCACCTAGTGCAG	8400 fluorescence intensity (a.u.)
CACGTACTAGCACTGTAGCGCACCCATGACTGTCTTTCTTCGGAGTCACCTAGTGCAG	9370 fluorescence intensity (a.u.)
CTCTCTCACTCTTCTCCCTCTTCTCACCACCAGACGCCATCGGAGTCACCTAGTGCAG	8850 fluorescence intensity (a.u.)
GATGTTAAGAAGACCATGAATGTTGCATTTTTACTCGTTGCGGAGTCACCTAGTGCAG	8200 fluorescence intensity (a.u.)
GAAGACTTGTGTTACGTTTCCATTTTAGTCTACCAGCTGCCGGAGTCACCTAGTGCAG	8650 fluorescence intensity (a.u.)
GGGGCGGCAGTGGATGGCGGTTGGGCGGCGGTGCGGGGAGCGGAGTCACCTAGTGCAG	12200 fluorescence intensity (a.u.)
CGTTGCATGGACTGTTCTTCTTGCCATCTTCATCTCCTACCGGAGTCACCTAGTGCAG	9750 fluorescence intensity (a.u.)
TATATATGTATCTCCTGTTGAATCCTGGTCTCTCACTCTCCGGAGTCACCTAGTGCAG	12800 fluorescence intensity (a.u.)
GCAGCAGGGAGGTGGGGCGCAGGAGGAAGAAGAAGAGGGACGGAGTCACCTAGTGCAG	13300 fluorescence intensity (a.u.)
ATCATAGCCGATTCTTTGCAAACTCAGTGAAGCTTCTTTCCGGAGTCACCTAGTGCAG	8650 fluorescence intensity (a.u.)
GTAGTTCGAGTTTAAATTTTTTTTGTGGTTGGTTGTATCGCGGAGTCACCTAGTGCAG	11100 fluorescence intensity (a.u.)
TTTCTGATCCGTTAGGCCCTGTTTAGTTCCCACGCAAAAACGGAGTCACCTAGTGCAG	8560 fluorescence intensity (a.u.)
AAGCTGCTATTTAACTTTGACCAAAGTCAAAACATTTTATCGGAGTCACCTAGTGCAG	9700 fluorescence intensity (a.u.)
CATGTGTTCCCTTTTTTGCTTTTAACTACATATTTGGAAACGGAGTCACCTAGTGCAG	8880 fluorescence intensity (a.u.)
TTCGTCAGTCTACTTTTCTCTTTGGGGTAATCACATAACTCGGAGTCACCTAGTGCAG	9270 fluorescence intensity (a.u.)
TGCTGTTCCAACTTCCGTTGCAGTTAATCCCTATATAAACCGGAGTCACCTAGTGCAG	8030 fluorescence intensity (a.u.)
ATGTTTGACCGTTCGTCTTATTCAAAAAATTTTTGTGAAACGGAGTCACCTAGTGCAG	8810 fluorescence intensity (a.u.)
AATGCCTGGCCCAGCCCAGCCACAACCGCCTTCAGGCCATCGGAGTCACCTAGTGCAG	8080 fluorescence intensity (a.u.)
TTATTGTGTTCTTACTGCTATTATTTTGGCCATTTTTTCTCGGAGTCACCTAGTGCAG	8660 fluorescence intensity (a.u.)

Individual results from the results shown.
binding signal with GAAGACTTGTGTTACGTTTCCATTTTAGTCTACCAGCTGCCGGAGTCACCTAGTGCAG reads 8650 fluorescence intensity (a.u.)
binding signal with CATGTGTTCCCTTTTTTGCTTTTAACTACATATTTGGAAACGGAGTCACCTAGTGCAG reads 8880 fluorescence intensity (a.u.)
binding signal with AATGCCTGGCCCAGCCCAGCCACAACCGCCTTCAGGCCATCGGAGTCACCTAGTGCAG reads 8080 fluorescence intensity (a.u.)

More entries:

Sequence	binding signal
GATCCGCCGCCGCCGCCTCCTCCCCGGGCCTCTCTCTGATCGGAGTCACCTAGTGCAG	8090 fluorescence intensity (a.u.)
CATGAGGTGATTTGGTTGTGTTTCAGCTTTTTACCATATTCGGAGTCACCTAGTGCAG	10200 fluorescence intensity (a.u.)
ATATCAACCATGTCGTTCGTCCATCTTGTTCTGACCTGTGCGGAGTCACCTAGTGCAG	11800 fluorescence intensity (a.u.)
ACCACCACCTCGGCATCTCCTCGTCCTCGAGCCCAATACTCGGAGTCACCTAGTGCAG	9160 fluorescence intensity (a.u.)
CTGACGACGTGCTGGACGAGCTCGACTACTTCCGCATCCACGGAGTCACCTAGTGCAG	8820 fluorescence intensity (a.u.)
CTATTCCTGCCTCGCTCTCTCTCCGTCACGAAGTTTTCTGCGGAGTCACCTAGTGCAG	8550 fluorescence intensity (a.u.)
ATGTTCTTAGTGTTTGGGGCAGTGTACTTCTTGTCACTTCCGGAGTCACCTAGTGCAG	10000 fluorescence intensity (a.u.)
AGAATTCAGTATTTGCCCTGGTTCATTACAATGCTTATATCGGAGTCACCTAGTGCAG	8550 fluorescence intensity (a.u.)
ACCACCACTTCCGCCGGCGCCACTCGCTTTCGTGAAGAAACGGAGTCACCTAGTGCAG	8730 fluorescence intensity (a.u.)
CTCCAGTGGCCAATTAGGCTTGCGTCTCTTCCTCAGATTTCGGAGTCACCTAGTGCAG	8380 fluorescence intensity (a.u.)
CACAAGTAGGCATTAACAGCTTCTGTTTCTTCTATTATTACGGAGTCACCTAGTGCAG	8960 fluorescence intensity (a.u.)
GCTGTGTGGGAGGGAGGGAGGAAGGGATTGACGAAAATAGCGGAGTCACCTAGTGCAG	12600 fluorescence intensity (a.u.)
ATTATTGAGTGTCAGTAGTACATATTCCTTTCTTGATTCTCGGAGTCACCTAGTGCAG	8240 fluorescence intensity (a.u.)
CCTGAAGTTGAATTCCCGACCTTTTTTGTTCAGCTATTGACGGAGTCACCTAGTGCAG	10800 fluorescence intensity (a.u.)
TCATTTATAGGCAATGTACTTCACAATGCTTGTGATCTTTCGGAGTCACCTAGTGCAG	8280 fluorescence intensity (a.u.)
TGGCGTCTTGTTGGTTAGTCTGTTGAAATGTGATTTTTATCGGAGTCACCTAGTGCAG	9960 fluorescence intensity (a.u.)
GTACATTATTCAATTTAGTTGTGTGCATCTAGCTTACTGACGGAGTCACCTAGTGCAG	9080 fluorescence intensity (a.u.)
TTTTTCCTCTTTTCTTTTATTGTTTTTGCGACTTAAAACCCGGAGTCACCTAGTGCAG	8550 fluorescence intensity (a.u.)
ATCGCGCATCACCCCTAGCCCTAGCCAACTACTACCTTAGCGGAGTCACCTAGTGCAG	8690 fluorescence intensity (a.u.)
TTTAAAGATGGGTGGGAAATCATTTCTCTTTCCCATTTGCCGGAGTCACCTAGTGCAG	10600 fluorescence intensity (a.u.)
CTGTTATTTAATTATATATAATTTTTCATGCGGTCTGTCCCGGAGTCACCTAGTGCAG	9310 fluorescence intensity (a.u.)

Sequence	binding signal
TTATTTTGTGTTGATGTTTTGACCGAATGATTCTTAATTTCGGAGTCACCTAGTGCAG	8080 fluorescence intensity (a.u.)
GATCAACGAACACTCGTGGGCCGTAGGCGGAGGCGCAAGTCGGAGTCACCTAGTGCAG	62600 fluorescence intensity (a.u.)
GACATAGATTGCCTTTTTTTACTTTTAGCTCTATTCAGGTCGGAGTCACCTAGTGCAG	8110 fluorescence intensity (a.u.)
GGCTTTTTTTTTTGGTTGCGTGCGGGCGGTATAATTTGACCGGAGTCACCTAGTGCAG	11900 fluorescence intensity (a.u.)
GGCGCTAGCTTTTTTCCGCATCTGATTATTTTCGTTCTTTCGGAGTCACCTAGTGCAG	9170 fluorescence intensity (a.u.)
TTGGTGTTAGTATAAATGTTGTTCCTTTACATCGGTTCTGCGGAGTCACCTAGTGCAG	11300 fluorescence intensity (a.u.)
ACCGTCTGTCCGGTTTGTCGTTCCAATCCGTTCTTGTTATCGGAGTCACCTAGTGCAG	9890 fluorescence intensity (a.u.)
ATTTACTCTCGCCCATTTTGGATTCACATTAGATCTGGCCCGGAGTCACCTAGTGCAG	9970 fluorescence intensity (a.u.)
CATTTACTTGAAGAGTCTTCTTTCGTGTATTCTCTTCCATCGGAGTCACCTAGTGCAG	10800 fluorescence intensity (a.u.)
CCATGGATCCACCTGTCCACGCAGCTGAGCTTAACCACCGCGGAGTCACCTAGTGCAG	9800 fluorescence intensity (a.u.)
TAGCATGACCTTTCACCCATACATATGAGCTACTTCTCTTCGGAGTCACCTAGTGCAG	9280 fluorescence intensity (a.u.)
GCCGTTGAGCCGACTCGATTAATTATACTTCCATTCCAATCGGAGTCACCTAGTGCAG	8240 fluorescence intensity (a.u.)
CCCACCACCCATTCCGATTCCACCGCGCGCGCACGCCATGCGGAGTCACCTAGTGCAG	9710 fluorescence intensity (a.u.)
TCCTTTACTTTGCCTAAACAATTCTCAACCATCTGTTTTCCGGAGTCACCTAGTGCAG	12200 fluorescence intensity (a.u.)
AGGGAATTTGATCTGGTCGGGCCTATGATTTGGTTATACTCGGAGTCACCTAGTGCAG	8590 fluorescence intensity (a.u.)
TTTGGATTGGGTCGAGTGGATTAATTTGTCAGGTATTAAACGGAGTCACCTAGTGCAG	8860 fluorescence intensity (a.u.)
GTCACATTCATCCAGTACGAGGTTTCTTTTCTAGGAGGGACGGAGTCACCTAGTGCAG	8570 fluorescence intensity (a.u.)
GTGGTATTTGGATCCAGTGACTTAATTTTAGTCCCTATATCGGAGTCACCTAGTGCAG	9000 fluorescence intensity (a.u.)
GATCGCTTCGCGTGGGCTGGGCTCCATGCCGATCTCCGTACGGAGTCACCTAGTGCAG	9540 fluorescence intensity (a.u.)
CATGCCCGCCTTACTTCGCGCGTCTTACTTCCGCGTGTAACGGAGTCACCTAGTGCAG	9500 fluorescence intensity (a.u.)
CTCCTTCTATACTTTTACGGTTTTACCCTGTTGTATATGACGGAGTCACCTAGTGCAG	9620 fluorescence intensity (a.u.)

Sequence	binding signal
CCCTTACTGGACTCCCTCAGGTCTTGCCATCACCCGCCTTCGGAGTCACCTAGTGCAG	10800 fluorescence intensity (a.u.)
ACACCACACCACCCTATAAAAACGCCCGCGATCCACTTGCCGGAGTCACCTAGTGCAG	9890 fluorescence intensity (a.u.)
ACTAGTTGAAGGAGTTGGGGCTATAAATGGGTGGTGCTATCGGAGTCACCTAGTGCAG	10900 fluorescence intensity (a.u.)
CACGCCACCTTGATACTCGCGGGCCCACCACTGCCACGCGCGGAGTCACCTAGTGCAG	10700 fluorescence intensity (a.u.)
TTGATCTCTGTACCCTTCCATATATCTCCACCCTTTTTAACGGAGTCACCTAGTGCAG	9010 fluorescence intensity (a.u.)
GTGGTCCAATCACCCTTTGACCCTTCGCCTCCGTGGCGCCCGGAGTCACCTAGTGCAG	8500 fluorescence intensity (a.u.)
TCCCGTCTCTACTTTCTCCTCTCCAGCCTCTCGAAAGCTACGGAGTCACCTAGTGCAG	8660 fluorescence intensity (a.u.)
TATAGGCCACTTGTGCCTCGGCTCACGTTGACCTGCCTTACGGAGTCACCTAGTGCAG	8170 fluorescence intensity (a.u.)
GCCCACCTAGTCTATTTCCTACTACTAGTAAACTCGTTTTCGGAGTCACCTAGTGCAG	9770 fluorescence intensity (a.u.)
TTTTCTTTCTCTCTTATACTTACTTTTGCTGTCCGCAGAACGGAGTCACCTAGTGCAG	10200 fluorescence intensity (a.u.)
TCGCATCGTTTTTGATTTGTGGCTGACACCATCCTATTCCCGGAGTCACCTAGTGCAG	10800 fluorescence intensity (a.u.)
CGTGACAACTGCGTCTTCTAGACCTTTCCAGACTCCGTTGCGGAGTCACCTAGTGCAG	8060 fluorescence intensity (a.u.)
TTTTTCTCCTTTCCCGTCTCTCGTATCGTCAGTTTCTTGCCGGAGTCACCTAGTGCAG	10700 fluorescence intensity (a.u.)
ATCGAAAAGCCTCGTTCGTCCTGCCCGTCCACCGTGTTGACGGAGTCACCTAGTGCAG	8380 fluorescence intensity (a.u.)
ATGTTTGTTTCCTTTAAATTAGCTATACTTTCTGTAATCCCGGAGTCACCTAGTGCAG	9260 fluorescence intensity (a.u.)
CCGGTATATTTTACATCGATGAACAGTATTTTTCTAATTTCGGAGTCACCTAGTGCAG	10300 fluorescence intensity (a.u.)
GTCACCGCAACAACCGCCAACTTTATTACCCACCAACTGACGGAGTCACCTAGTGCAG	9210 fluorescence intensity (a.u.)
TTGAGTTCAGTTATTTGGTTATACCTGACTGCTTGGGCATCGGAGTCACCTAGTGCAG	8210 fluorescence intensity (a.u.)
GTAGGCCCACTAATCTGCTGTTGTTTATTTTCGTTGTCACCGGAGTCACCTAGTGCAG	9210 fluorescence intensity (a.u.)
ACCGCCTCCATCTCGACCTCGAGCCAGCCCCACGCCGGGACGGAGTCACCTAGTGCAG	8820 fluorescence intensity (a.u.)
CCCTGACACTTCCCACACACTGTGCCACTGCCACTCTCCACGGAGTCACCTAGTGCAG	8540 fluorescence intensity (a.u.)
